The values that follow come from patent US5882914.

At least one result comes from cells or an extract, where the contact may be indirect. For some assays here: A negative result means that nothing was seen under these conditions. For some assays here: The exact form of at least one protein or probe is not confirmed. For some assays here: A weaker result is weaker than the reference pair of the same experiment.

For data set [1], the system named is HIF-1 in nuclear extract (Homo sapiens). Put plainly: footprint. As to conditions: methylation interference, protein in an extract, variant of W18.
In data set [2] the test system is constitutive W18-binding factor (40-50 kDa DNA-binding subunit) (Homo sapiens). Put plainly: footprint. Particulars: protein in an extract, variant of W18.
Data set [3] has the same test system. Put plainly: EMSA. Particulars: sequence-specific constitutive activity; protein in an extract. A general note: In EMSA bound probe runs differently from free probe, usually more slowly.
For data set [4], the system named is HIF-1 in nuclear extract (Homo sapiens). Briefly: EMSA. Particulars: induced by CoCl2 or 1% O2; supershifted by anti-HIF-1alpha and anti-HIF-1beta sera; protein in an extract.

For “GATCGCCCTACGTGCTGTCTCA (double strand) [W18 methylated coding G8]”, in data set [1] (methyl-G at G8 coding strand (W18 numbering), binding eliminated), the binding result is “no binding”. Take “GATCGCCCTACGTGCTGTCTCA (double strand) [W18 methylated noncoding G11]”: the binding result in data set [2] (methyl-G at G11 noncoding strand (W18 numbering), no methylation interference) is on record as “binds”; in data set [1] (methyl-G at G11 noncoding strand (W18 numbering), binding blocked) it was “no binding”.

“GATCGCCCTACGTGCTGTCTCA (double strand) [W18]”: the binding result in data set [3] and in data set [4] was “binds” each time.

Take “GATCGCCCTACGTGCTGTCTCA (double strand) [W18 methylated coding G10]”: in data set [2] (methyl-G at G10 coding strand (W18 numbering), partial methylation interference), the binding result was “binds more weakly”. With “GATCGCCCTACGTGCTGTCTCA (double strand) [W18 methylated noncoding G7]”, the binding result in data set [2] (methyl-G at G7 noncoding strand (W18 numbering), methylation interferes with binding) was “binds more weakly”; in data set [1] (methyl-G at G7 noncoding strand (W18 numbering), binding blocked), “no binding”.
